Experimental data published in PubChem BioAssay AID200 (DTP/NCI, 2004).
The list shows only some results of the screen, not a fair sample: it is rich in T/C values a quarter to a half above the control, in often repeated tests (any T/C) and in doses without a T/C. Further doses and runs are listed elsewhere. T/C gives the treated animals as a percentage of the vehicle group. Some doses have a count of surviving animals in place of a T/C: the source files T/C as zero there, which appears to mark a toxic dose or a test without result, not a measured value. Some survivor counts are full or nearly so, which does not show that the dose was tolerated: the source hardly ever lists a survival T/C far under the control, and the zero likely stands for such cases as well. Counts of survivors are from the toxicity check (mostly the fifth day) where no day follows; animals may have died later. Schedules are NCI's codes, read here as Q, the interval in days (D) or hours (H), X, the number of doses. Some entries hold several experiments; the values are given in rising order. Where survival is the endpoint, this PubChem deposit counts one and a half times the control or more as active, and values a quarter to a half above the control carry no call in these data; other NCI protocols may use other cut-offs. Some T/C values carry the count of animals alive at the toxicity check (mostly the fifth day); without a count, all were alive then.

Test system: B6C3F1 mice, B16 melanoma ip, median survival T/C
Assay: NCI In Vivo Anticancer Drug Screen. Data for tumor model B16 Melanoma (intraperitoneal) in B6C3F1 mice
Conditions: T/C endpoint: median survival time, schedule: Q01DX009 (ip), higher T/C = longer survival
Method in brief: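 Transplantable tumor in mice; treated vs vehicle control groups; survival or tumor size measured; value = T/C ratio.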

[1] = dose: 50.0 mg/kg/injection, vehicle: saline
[2] = dose: 100.0 mg/kg/injection, vehicle: saline
[3] = dose: 200.0 mg/kg/injection, vehicle: saline
[4] = dose: 400.0 mg/kg/injection, vehicle: saline with Tween-80
[5] = dose: 50.0 mg/kg/injection, vehicle: saline with Tween-80
[6] = dose: 100.0 mg/kg/injection, vehicle: saline with Tween-80
[7] = dose: 200.0 mg/kg/injection, vehicle: saline with Tween-80
[8] = dose: 400.0 mg/kg/injection, vehicle: saline

## C/C=C(\C)c1cc(=O)c2c(C)cc3c(c2o1)C(=O)c1c(O)c(C2CC(C)(N(C)C)C(O)C(C)O2)cc(C2CC(N(C)C)C(O)C(C)O2)c1C3=O (stereo not given)
dose: 125.0 micrograms/kg/injection, vehicle: saline
  T/C: 129 % of control
dose: 250.0 micrograms/kg/injection, vehicle: saline
  T/C: 135 % of control
dose: 312.5 micrograms/kg/injection, vehicle: saline
  T/C: 145 % of control
dose: 500.0 micrograms/kg/injection, vehicle: saline
  T/C: 127 % of control [9 of 10 alive]
dose: 625.0 micrograms/kg/injection, vehicle: saline
  T/C: 134 % of control
dose: 1000.0 micrograms/kg/injection, vehicle: saline
  T/C: 143 % of control
dose: 2500.0 micrograms/kg/injection, vehicle: saline
  survivor count: 10 of 10

## O=C(C1CO1)C(Cl)(Cl)Cl (stereo not given)
[1]
  survivor count: 4 of 10
[2]
  survivor count: 0 of 10
[3]
  survivor count: 0 of 10

## CCCCCCCCCCCCCCCCCC(=O)OCC(=O)OCC(=O)[C@]1(O)Cc2c(O)c3c(c(O)c2[C@@H](OC2CC(N)C(O)C(C)O2)C1)C(=O)c1c(OC)cccc1C3=O (stereo not given in full)
dose: 0.37 mg/kg/injection, vehicle: saline
  T/C: 142 % of control
dose: 12.0 mg/kg/injection, vehicle: saline
  survivor count: 10 of 10

## C=COC(=O)N(C)C
[4]
  survivor count: 2 of 10

## CC(=O)Nc1ccc(Nc2ccc(C(=C3C=CC(=[N+](C)CCC#N)C=C3)c3ccc(N(C)CCC#N)cc3)cc2)cc1
[5]
  survivor count: 0 of 10
[6]
  survivor count: 0 of 10
[7]
  survivor count: 0 of 10
[4]
  survivor count: 0 of 10

## N=C1CCCS1
[2]
  survivor count: 9 of 10
[3]
  survivor count: 0 of 10
[8]
  survivor count: 0 of 10

## COc1ccc(/C(C#N)=C2\OC(=O)c3ccccc32)cc1OC
[6]
  survivor count: 10 of 10
[4]
  survivor count: 10 of 10

## COc1cc([NH-])c([NH-])cc1OC.[Cl][Pt+2][Cl]
dose: 160.0 mg/kg/injection, vehicle: saline with Tween-80
  survivor count: 7 of 10
dose: 320.0 mg/kg/injection, vehicle: saline with Tween-80
  survivor count: 0 of 10

## Nc1ccc(C(=O)O)c(O)c1
dose: 4.7 mg/kg/injection, vehicle: saline with Tween-80
  T/C: 132 % of control
dose: 25.0 mg/kg/injection, vehicle: Klucel (hydroxypropylcellulose) (HPC)
  survivor count: 10 of 10
dose: 50.0 mg/kg/injection, vehicle: Klucel (hydroxypropylcellulose) (HPC)
  survivor count: 9 of 10
dose: 400.0 mg/kg/injection, vehicle: Klucel (hydroxypropylcellulose) (HPC)
  survivor count: 9 of 10
dose: 600.0 mg/kg/injection, vehicle: saline with Tween-80
  survivor count: 8 of 10

## O=S(=O)(CCl)OCCCl
dose: 6.25 mg/kg/injection, vehicle: saline with Tween-80
  survivor count: 10 of 10
[5]
  T/C: 127 % of control
[6]
  survivor count: 1 of 10 and 10 of 10
[7]
  survivor count: 0 of 10, 3 of 10, 7 of 10

## COC1=C2C[C@@H](C)C[C@@H](OC)[C@@H](O)[C@H](C)/C=C(\C)[C@@H](OC(N)=O)[C@H](OC)/C=C\C=C(/C)C(=O)NC(=CC1=O)C2=O
dose: 0.25 mg/kg/injection, vehicle: saline with Tween-80
  survivor count: 10 of 10
dose: 1.0 mg/kg/injection, vehicle: saline with Tween-80
  T/C: 125 % of control
dose: 2.0 mg/kg/injection, vehicle: saline with Tween-80
  T/C: 129 % of control
dose: 4.0 mg/kg/injection, vehicle: saline with Tween-80
  survivor count: 10 of 10

## CCC/C=C/C=C/C(=O)OC1/C(=C/C(=O)OC)CC2CC(C(C)O)OC(=O)CC(O)CC3CC(OC(C)=O)C(C)(C)C(O)(CC4C/C(=C/C(=O)OC)CC(/C=C/C(C)(C)C1(O)O2)O4)O3 (stereo not given)
dose: 150.0 micrograms/kg/injection, vehicle: saline + alcohol
  survivor count: 7 of 10
dose: 300.0 micrograms/kg/injection, vehicle: saline + alcohol
  survivor count: 2 of 10

## COC1/C=C\C=C(/C)C(=O)NC2=CC(=O)C(N)=C(CC(C)CC(OC)C(O)C(C)C=C(C)C1OC(N)=O)C2=O (stereo not given)
dose: 6.0 mg/kg/injection, vehicle: saline with Tween-80
  T/C: 125 % of control

## O=c1[nH]c2c(ccc3cnccc32)c2c1CCC2
dose: 25.0 mg/kg/injection, vehicle: saline
  T/C: 133 % of control
[1]
  survivor count: 9 of 10
[2]
  survivor count: 10 of 10

## CCN(CC)CCOCCO
[3]
  survivor count: 7 of 10
[8]
  survivor count: 0 of 10

## CC(=O)C1=C(O)C2(O)C(=O)c3c(c(C)c4ccc(C)c(O)c4c3O)CC2C(N)C1=O (stereo not given)
dose: 7.5 mg/kg/injection, vehicle: saline + alcohol
  T/C: 125 % of control
dose: 15.0 mg/kg/injection, vehicle: saline + alcohol, evaluated on day 45
  T/C: 139 % of control
dose: 15.0 mg/kg/injection, vehicle: saline + alcohol, evaluated on day 60
  T/C: 120, 121, 134 % of control
dose: 30.0 mg/kg/injection, vehicle: saline + alcohol, evaluated on day 45
  T/C: 143 % of control
dose: 30.0 mg/kg/injection, vehicle: saline + alcohol, evaluated on day 60
  T/C: 116, 146, 178 % of control
dose: 30.0 mg/kg/injection, vehicle: saline
  T/C: 129 % of control
dose: 60.0 mg/kg/injection, vehicle: saline + alcohol, evaluated on day 45
  T/C: 160 % of control
dose: 60.0 mg/kg/injection, vehicle: saline + alcohol, evaluated on day 60
  T/C: 121, 130 [8 of 10 alive], 134 % of control
dose: 60.0 mg/kg/injection, vehicle: saline
  T/C: 128 % of control
dose: 120.0 mg/kg/injection, vehicle: saline + alcohol
  survivor count: 5 of 10
dose: 120.0 mg/kg/injection, vehicle: saline
  survivor count: 7 of 10
dose: 240.0 mg/kg/injection, vehicle: saline
  survivor count: 0 of 10

## COc1cc2cc(c1Cl)N(C)C(=O)CC(OC(=O)CC(C)C)C1(C)OC1C(C)C1CC(O)(NC(=O)O1)C(OC)/C=C/C=C(C)C2 (stereo not given)
dose: 6.2 micrograms/kg/injection, vehicle: saline + alcohol
  T/C: 131 % of control
dose: 12.5 micrograms/kg/injection, vehicle: saline + alcohol
  T/C: 132 % of control
dose: 25.0 micrograms/kg/injection, vehicle: saline + alcohol
  T/C: 138 % of control
dose: 50.0 micrograms/kg/injection, vehicle: saline + alcohol
  survivor count: 10 of 10
dose: 100.0 micrograms/kg/injection, vehicle: saline + alcohol
  survivor count: 8 of 10
dose: 200.0 micrograms/kg/injection, vehicle: saline + alcohol
  survivor count: 1 of 10

## N#Cc1ccc(NC(=O)Nc2nncs2)cc1
[5]
  T/C: 125 % of control
dose: 100.0 mg/kg/injection, vehicle: saline with Tween-80, evaluated on day 45
  T/C: 143 % of control
dose: 100.0 mg/kg/injection, vehicle: saline with Tween-80, evaluated on day 60
  T/C: 127 % of control
[7]
  survivor count: 6 of 10 and 8 of 10
[4]
  survivor count: 0 of 10 and 3 of 10

## C[CH2][Pb]([CH2]C)([CH2]C)[O]C(=O)COc1ccccc1
dose: 12.0 mg/kg/injection, vehicle: Klucel (hydroxypropylcellulose) (HPC)
  survivor count: 5 of 10

## CCCCNC(C)C1(O)Cc2c(O)c3c(c(O)c2C(OC2CC(N)C(O)C(C)O2)C1)C(=O)c1c(OC)cccc1C3=O (stereo not given)
dose: 160.0 mg/kg/injection, vehicle: saline
  survivor count: 10 of 10
